Test results published in patent publication US20260191907A1.
Results are given in words; binding and its absence hold for the method and conditions named. Some results given as binding are weak or reduced against the parent protein; the word gives no strength.

Columns and labels:
[1] = biological target: FGFR4 expressed on the surface of RMS cells (Rh4-FR4 wt, Rh30) (human) (UniProt P22455); assay: flow cytometry, recombinant nanobody on Rh4-FR4 wt cells
[2] = biological target: FGFR4 expressed on the surface of RMS cells (Rh4-FR4 wt, Rh30) (human) (UniProt P22455); assay: flow cytometry, recombinant nanobody at 30 µg/ml on Rh4-FR4 wt cells, anti-6xHis-FITC detection
[3] = biological target: FGFR4 expressed on the surface of RMS cells (Rh4-FR4 wt, Rh30) (human) (UniProt P22455); assay: flow cytometry on Rh4-FR4 wt cells
[4] = biological target: FGFR4 expressed on the surface of RMS cells (Rh4-FR4 wt, Rh30) (human) (UniProt P22455); assay: flow cytometry on RMS cells
[5] = biological target: FGFR4 expressed on the surface of RMS cells (Rh4-FR4 wt, Rh30) (human) (UniProt P22455); assay: flow cytometry, phage clone displaying the nanobody on Rh4-FR4 wt cells, anti-M13 detection
[6] = biological target: T1, Recombinant FGFR4 (G&P Biosciences) (human) (UniProt P22455); assay: SPR, recombinant FGFR4 immobilised, nanobody as analyte
T1 sequence: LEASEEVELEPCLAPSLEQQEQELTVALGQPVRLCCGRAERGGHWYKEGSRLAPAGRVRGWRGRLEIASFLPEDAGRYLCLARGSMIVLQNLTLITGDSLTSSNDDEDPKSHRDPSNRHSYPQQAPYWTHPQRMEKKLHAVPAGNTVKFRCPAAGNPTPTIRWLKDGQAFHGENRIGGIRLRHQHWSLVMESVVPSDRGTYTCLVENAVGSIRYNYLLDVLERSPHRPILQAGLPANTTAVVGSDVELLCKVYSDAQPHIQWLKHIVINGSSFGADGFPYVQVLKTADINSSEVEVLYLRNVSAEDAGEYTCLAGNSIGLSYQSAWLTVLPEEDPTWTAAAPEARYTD

[7] = biological target: FGFR4 expressed on the surface of RMS cells (Rh4-FR4 wt, Rh30) (human) (UniProt P22455); assay: flow cytometry and confocal microscopy on RMS cells
[8] = biological target: FGFR4 expressed on the surface of RMS cells (Rh4-FR4 wt, Rh30) (human) (UniProt P22455); assay: flow cytometry of DiR fluorescence, liposomes at 0.5 mM lipid on Rh4-FR4 wt cells, 2 h at 37 °C

Measured: binding

B1: A8 nanobody (anti-FGFR4 sdAb, NaLi-H1 library) (VHH, not shown: small tags and cut ends)
VHH: EVQLQASGGGFVQPGGSLRLSCAASGRTYSRDTMGWFRQAPGKEREFVSAISSRHSHTTYYADSVKGRFTISRDNSKNTVYLQMNSLRAEDTATYYCAEWDVFDMHYALPPMWYWGQGTQVTVSS
binds: [1] | [2] | [3] | [4] | [5] | [6]

B2: L-A8, VCR-loaded fluorescent liposomes decorated with nanobody A8 (protein, not shown: small tags and cut ends)
VHH: EVQLQASGGGFVQPGGSLRLSCAASGRTYSRDTMGWFRQAPGKEREFVSAISSRHSHTTYYADSVKGRFTISRDNSKNTVYLQMNSLRAEDTATYYCAEWDVFDMHYALPPMWYWGQGTQVTVSS
modifications: C-terminal cysteine coupled to DSPE-PEG-maleimide on the liposomal surface
binds: [7] | [8] | [3]
